# The whole screen tested about 340,000 compounds, of which about 170 (0.05%) were called active. Inconclusive results, whose numbers are uncertain, are shown with a selection of clear calls. Calls come from the whole dose curve; as a rule, active = well fitted inhibition curve with a large enough effect in the signal ratio, with a control signal flat (not every such curve was filed as active); inconclusive = small, poorly fitted or top-dose-only effect, or effect the other way, or a change in a side signal; inactive = flat fitted curve, though single readings scatter; the % refers to the signal ratio. A potency beside an inconclusive call is a rough fit, not a confirmed value.
# Test: qHTS Assay to Find Inhibitors of Chronic Active B-Cell Receptor Signaling;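 for activity change, negative = inhibition: plate controls were basal doxycycline-induced cells for no effect and cells given 10 µM MG132 for full effect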
# Settings: ABC-DLBCL IkBa-CBG/CBR reporter, luminescence ratio (green luciferase fused to IkBa over red control in TMD8 lymphoma cells), 4 h; activity change, negative = inhibition: at 46.1 µM (top of the series)
# How it was run: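 Compounds up to 46 uM were incubated four hours with TMD8 cells whose green CBG68 luciferase is fused to IkappaBalpha; red CBR luminescence normalised the signal, and concentration-effect curves were fitted to fusion, red and ratio data.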
# Potency is the fitted concentration of half-maximal effect.
SMILES,"activity change, negative = inhibition",Potency
CC1CN(CCOc2ccccc2C(C)C)CC(C)O1 (centres undefined),inactive: 3.24%,–
CCc1ccc(Cn2nnc(C(=O)Nc3ccc(OC)cc3OC)c2N)cc1,inactive: 6.85%,–
NNC(=O)CC12CC3CC(C1)CC(n1ncnn1)(C3)C2,inactive: 0.0638%,–
CCNC(=S)NC1CC2CCCC(C1)N2Cc1ccco1 (centres undefined),inactive: -23%,–
Cc1c2c(n3c(nc4ccccc43)c1C#N)N(CCN1CCOCC1)CC2,inactive: 2.38%,–
COc1ccc(Cn2c(C(C)C)nc3sc4ccccc4c(=O)c3c2=O)cc1,inconclusive: 4.44%,–
CC(C)(C)C(=O)NNC(=O)C1CC1(c1ccccc1)c1ccccc1 (centres undefined),inactive: -5.99%,–
CCOc1cc(C(=O)OCC(=O)N(C)c2ccccc2)cc(OCC)c1OCC,–,"inconclusive: 17.8 µM [falling, partial curve, poor fit]"
CCN(c1cccc(C)c1)S(=O)(=O)c1nnc(NC(=O)c2ccco2)s1,inactive: 13.3%,–
CCOC(=O)c1cc2sccc2n1CC(=O)N1c2ccccc2CC1C (centres undefined),inactive: 0.909%,–
COc1ccc(CNC(=O)CCSCc2cccc(F)c2)cc1,inactive: -1.48%,–
Cc1cc(=O)oc2cc(OCC(=O)NC3CCCCC3)ccc12,inconclusive: 5.72%,–
C/C(=N\NC(=O)c1ccc(Cl)cc1)c1ccccn1,–,"inconclusive: 20 µM [cytotoxic, partial curve]"
COc1ccc(N(C(=O)CCl)C(C(=O)NC2CCCCC2)c2cccnc2)cc1 (centres undefined),–,"inconclusive: 10.3 µM [falling, partial curve]"
O=C(NC1=NCCS1)c1cccc(N2C(=O)c3ccccc3C2=O)c1,–,"inconclusive: 35.5 µM [falling, single point]"
CCc1ccc(CNCc2ccc(F)cc2)cc1,inconclusive: 3.99%,–
CCC(C)Sc1cccc(-c2nc3ccccn3c2NCc2ccccc2)c1 (centres undefined),inconclusive: -2.11%,–
O=S(=O)(Nc1ccccn1)c1ccc(C(F)(F)F)cc1Cl,inactive: 4.91%,–
Cc1noc(/C=C/N(C)C)c1S(=O)(=O)N1CCc2ccccc21,inactive: 2.25%,–
CSc1ncccc1C(=O)OCC(=O)N(C)C1CCS(=O)(=O)C1 (centres undefined),inconclusive: -38.1%,–
CC(=O)c1cc(F)c(N2CCN(c3ccc([N+](=O)[O-])cc3F)CC2)cc1C,inactive: 8.96%,–
CCc1cccc(NC(=O)Nc2cccs2)c1,–,"inconclusive: 9.2 µM [rising, partial curve, poor fit]"
COC(=O)c1sc(=S)sc1C(=O)OC,inactive: -6.18%,–
CN(C)S(=O)(=O)c1ccc(NC(=O)CN2CCCC2c2ccc3c(c2)OCCCO3)cc1 (centres undefined),inconclusive: -1.52%,–
O=C(COc1ccccc1)N1CCN(C(=O)c2ccco2)CC1,inactive: 1.44%,–
c1ccc2c(c1)CCc1c-2nc2ccccc2c1N1CCOCC1,–,"inconclusive: 22.4 µM [rising, partial curve, poor fit]"
O=C(NNc1ncnc2ccccc12)c1cccc(Cl)c1,–,"inconclusive: 3.16 µM [falling, single point]"

# Entries of single compounds, quoted from the list. Values in the order: activity change, negative = inhibition | Potency
# `COC(=O)c1sc(=S)sc1C(=O)OC` as listed: inactive: -6.18% | –
# `COc1ccc(CNC(=O)CCSCc2cccc(F)c2)cc1` as listed: inactive: -1.48% | –

# (listing goes on)

SMILES,"activity change, negative = inhibition",Potency
CC1CN(C(=O)CN2C(=O)NC3(CCCC3)C2=O)C(=Nc2cccc(S(=O)(=O)N(C)C)c2)S1 (centres undefined),inconclusive: -3.01%,–
Cc1cccc(NNC(=S)Nc2c(C)cccc2C)c1,–,"inconclusive: 12.6 µM [falling, partial curve]"
CCOc1ccc(CCNC(=O)COC(=O)c2cccc(S(=O)(=O)N3CCOCC3)c2)cc1OCC,inactive: -4.79%,–
CCOC(=O)C1=C(C)NC(C)=C(C(=O)OC)C1c1cccc([N+](=O)[O-])c1 (centres undefined),–,"inconclusive: 2 µM [falling, full curve]"
Cc1nnc(SCCn2c(N3CCCCC3)nc3c2c(=O)[nH]c(=O)n3C)s1,inconclusive: 1.47%,–
COc1cc2c(cc1OC)/C(=C/C(=O)c1ccc(OC)c([N+](=O)[O-])c1)NCC2,–,"inconclusive: 11.2 µM [falling, partial curve, poor fit]"
Nc1cc(OC(=O)c2c(F)cccc2Cl)nn1S(=O)(=O)c1ccccc1,–,"inconclusive: 25.1 µM [falling, single point]"
Cc1ccc(NC(=S)NC2CCCC2)cc1C,–,"inconclusive: 29.1 µM [falling, single point]"
N=c1c(S(=O)(=O)c2ccccc2)cc2c(=O)n3ccccc3nc2n1C1CCCC1,inconclusive: 1.07%,–
COc1ccc(-n2c(COc3cccc(C)c3)n[nH]c2=S)cc1,inactive: -0.513%,–
O=C(c1ccc(C(=O)N2CCCCCC2)cc1)N1CCCCCC1,inconclusive: 8.9%,–
O=C(CCCOc1ccc(Cl)cc1Cl)Nc1ccccn1,inconclusive: 2.6%,–
CC(C)c1ccccc1NC(=O)COc1ccc(C(=O)NCCc2ccccc2)cc1,inconclusive: 16.1%,–
O=C(O)CCCN1C(=O)/C(=C\c2ccc(-c3nc4ccccc4s3)o2)SC1=S,–,"inconclusive: 11.2 µM [falling, partial curve]"
O=C(Nc1ccc(Br)cc1)Nc1ccccc1F,–,"inconclusive: 22.4 µM [falling, partial curve]"
CCC1(c2ccccc2)NC(=O)N(CC(=O)Nc2cc(Cl)ccc2N2CCOCC2)C1=O (centres undefined),inconclusive: -9.06%,–
CSc1nc(SCCN(C)C)c2c3c(sc2n1)COC(C)(C)C3,inconclusive: -12%,–
NC(=O)c1ccsc1NC(=O)c1nc(-c2ccccc2)n(-c2ccccc2)n1,inconclusive: -15.8%,–
CCOC(=O)c1cc(-c2ccccc2)sc1NC(=S)Nc1cccc(C)n1,inactive: -4.95%,–
CSc1nnc(-c2cccs2)n1C,inactive: -2.32%,–
Cc1cc(C(=O)OCC(=O)N2CCCC2)c2ccccc2n1,inconclusive: 0.912%,–
N#Cc1c(Nc2ccccc2C(F)(F)F)s[nH]c1=O,–,"inconclusive: 35.5 µM [rising, single point]"
COc1cccc(/C=N/n2c(N)nc3ccccc32)c1OC,inactive: 22.1%,–
COc1ccc(-c2cc(C(=O)NN)n(-c3ccccc3)n2)cc1,inactive: -6.95%,–
Cn1c(=O)c2c(ncn2CC(=O)N/N=C/c2ccco2)n(C)c1=O,–,"inconclusive: 29.1 µM [falling, single point]"
O=C1O[C@@H](c2ccc(O)cc2)Cc2cccc(O)c21,–,"inconclusive: 9.2 µM [rising, partial curve, poor fit]"
Cc1ccc(-n2cc(C(C)(C)C)[nH]c2=S)cc1,inactive: 4.12%,–

# Entries shown so far with a cyano group (2):
SMILES,"activity change, negative = inhibition",Potency
Cc1c2c(n3c(nc4ccccc43)c1C#N)N(CCN1CCOCC1)CC2,inactive: 2.38%,–
N#Cc1c(Nc2ccccc2C(F)(F)F)s[nH]c1=O,–,"inconclusive: 35.5 µM [rising, single point]"

# — PubChem BioAssay AID493014 (National Center for Advancing Translational Sciences (NCATS), 2011)
